In publication PMC10556790:
Like-named read-outs stand apart in the source and are kept apart here. These are yes or no findings as the source states them, for the method shown. In cells and extracts the contact can be indirect. Some results given as binding are weak or reduced against the parent protein; the word gives no strength.

The chains behind the UniProt entries cited, without tags or fusion partners. Residues count along the entry.
UniProt P40939, residues 37-763: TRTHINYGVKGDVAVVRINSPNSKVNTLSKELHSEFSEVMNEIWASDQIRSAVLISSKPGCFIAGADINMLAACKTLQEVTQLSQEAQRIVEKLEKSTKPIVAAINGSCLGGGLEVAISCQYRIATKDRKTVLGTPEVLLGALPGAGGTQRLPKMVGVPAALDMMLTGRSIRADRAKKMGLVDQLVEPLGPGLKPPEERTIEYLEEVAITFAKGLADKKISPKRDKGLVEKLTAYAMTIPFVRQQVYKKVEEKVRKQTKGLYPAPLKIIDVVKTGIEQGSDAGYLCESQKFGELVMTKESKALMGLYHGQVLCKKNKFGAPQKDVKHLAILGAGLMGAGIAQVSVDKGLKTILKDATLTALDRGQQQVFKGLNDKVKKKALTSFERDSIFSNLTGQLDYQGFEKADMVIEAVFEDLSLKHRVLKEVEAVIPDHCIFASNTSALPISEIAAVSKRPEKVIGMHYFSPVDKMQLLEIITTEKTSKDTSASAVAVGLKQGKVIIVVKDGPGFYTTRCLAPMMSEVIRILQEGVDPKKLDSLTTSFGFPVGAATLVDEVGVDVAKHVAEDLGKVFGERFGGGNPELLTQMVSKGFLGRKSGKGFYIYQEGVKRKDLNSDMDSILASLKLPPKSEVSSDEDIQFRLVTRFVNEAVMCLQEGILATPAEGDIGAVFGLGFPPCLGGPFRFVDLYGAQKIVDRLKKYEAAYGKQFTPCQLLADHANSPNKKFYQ
UniProt O76031, residues 57-633: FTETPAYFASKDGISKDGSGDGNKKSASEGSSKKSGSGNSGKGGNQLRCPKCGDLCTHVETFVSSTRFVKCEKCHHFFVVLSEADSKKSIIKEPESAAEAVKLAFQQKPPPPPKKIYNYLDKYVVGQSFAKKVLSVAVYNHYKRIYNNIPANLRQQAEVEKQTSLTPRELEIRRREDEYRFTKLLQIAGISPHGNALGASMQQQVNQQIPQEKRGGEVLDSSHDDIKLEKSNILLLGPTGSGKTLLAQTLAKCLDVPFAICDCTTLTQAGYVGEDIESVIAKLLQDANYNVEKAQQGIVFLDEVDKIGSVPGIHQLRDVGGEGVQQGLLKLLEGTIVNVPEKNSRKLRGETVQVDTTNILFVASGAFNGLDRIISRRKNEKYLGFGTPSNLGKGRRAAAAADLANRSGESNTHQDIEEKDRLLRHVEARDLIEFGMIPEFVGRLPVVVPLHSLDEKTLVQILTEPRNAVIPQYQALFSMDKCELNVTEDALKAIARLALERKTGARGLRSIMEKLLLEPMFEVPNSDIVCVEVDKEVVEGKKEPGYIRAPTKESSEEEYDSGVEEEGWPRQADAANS

T1: Trifunctional enzyme subunit beta, mitochondrial (human (endogenous in FT293 and HepG2)) (UniProt P55084)
T1 sequence: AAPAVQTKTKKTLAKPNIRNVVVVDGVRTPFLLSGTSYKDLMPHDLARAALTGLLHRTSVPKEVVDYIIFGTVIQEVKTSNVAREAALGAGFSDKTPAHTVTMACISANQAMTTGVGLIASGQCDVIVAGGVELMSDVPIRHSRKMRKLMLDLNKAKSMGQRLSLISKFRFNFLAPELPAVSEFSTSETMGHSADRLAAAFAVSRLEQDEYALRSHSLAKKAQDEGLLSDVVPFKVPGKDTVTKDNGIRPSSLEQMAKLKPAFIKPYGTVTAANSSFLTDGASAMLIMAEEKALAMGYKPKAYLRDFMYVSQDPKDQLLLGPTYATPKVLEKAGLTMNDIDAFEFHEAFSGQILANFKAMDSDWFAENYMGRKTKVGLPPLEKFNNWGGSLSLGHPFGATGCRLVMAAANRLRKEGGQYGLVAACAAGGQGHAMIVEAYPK

B1: Enoyl-CoA hydratase, mitochondrial (protein, UniProt P30084 28-290)
chain: ASGANFEYIIAEKRGKNNTVGLIQLNRPKALNALCDGLIDELNQALKTFEEDPAVGAIVLTGGDKAFAAGADIKEMQNLSFQDCYSSKFLKHWDHLTQVKKPVIAAVNGYAFGGGCELAMMCDIIYAGEKAQFAQPEILIGTIPGAGGTQRLTRAVGKSLAMEMVLTGDRISAQDAKQAGLVSKICPVETLVEEAIQCAEKIASNSKIVVAMAKESVNAAFEMTLTEGSKLEKKLFYSTFATDDRKEGMTAFVEKRKANFKDQ
B2: 3-Ketoacyl-CoA thiolase, mitochondrial (protein, UniProt P42765 1-397)
chain: MALLRGVFVVAAKRTPFGAYGGLLKDFTATDLSEFAAKAALSAGKVSPETVDSVIMGNVLQSSSDAIYLARHVGLRVGIPKETPALTINRLCGSGFQSIVNGCQEICVKEAEVVLCGGTESMSQAPYCVRNVRFGTKLGSDIKLEDSLWVSLTDQHVQLPMAMTAENLAVKHKISREECDKYALQSQQRWKAANDAGYFNDEMAPIEVKTKKGKQTMQVDEHARPQTTLEQLQKLPPVFKKDGTVTAGNASGVADGAGAVIIASEDAVKKHNFTPLARIVGYFVSGCDPSIMGIGPVPAISGALKKAGLSLKDMDLVEVNEAFAPQYLAVERSLDLDISKTNVNGGAIALGHPLGGSGSRITAHLVHELRRRGGKYAVGSACIGGGQGIAVIIQSTA
B3: hydroxyacyl-CoA dehydrogenase (protein, UniProt Q16836 13-314)
chain: SSSSTASASAKKIIVKHVTVIGGGLMGAGIAQVAAATGHTVVLVDQTEDILAKSKKGIEESLRKVAKKKFAENLKAGDEFVEKTLSTIATSTDAASVVHSTDLVVEAIVENLKVKNELFKRLDKFAAEHTIFASNTSSLQITSIANATTRQDRFAGLHFFNPVPVMKLVEVIKTPMTSQKTFESLVDFSKALGKHPVSCKDTPGFIVNRLLVPYLMEAIRLYERGDASKEDIDTAMKLGAGYPMGPFELLDYVGLDTTKFIVDGWHEMDAENPLHQPSPSLNKLVAENKFGKKTGEGFYKYK

Legend:
[1] = biological target: Trifunctional enzyme subunit alpha, mitochondrial (human (endogenous in FT293 and HepG2)) (UniProt P40939); experiment: co-IP; endogenous HADHA precipitated with anti-HADHA antibody and Dynabeads Protein G from HepG2 lysate, overnight 4 °C, Western blot; CLPX-WT and CLPX-KO cells, CLPX-WT cells with or without 50 nM Gcg; rabbit IgG as negative control
[2] = biological target: T1, Trifunctional enzyme subunit beta, mitochondrial (human (endogenous in FT293 and HepG2)); experiment: co-IP; endogenous HADHB precipitated with anti-HADHB antibody and Dynabeads Protein G from HepG2 lysate, overnight 4 °C, Western blot; CLPX-WT and CLPX-KO cells, CLPX-WT cells with or without 50 nM Gcg; rabbit IgG as negative control
[3] = biological target: endogenous CLPX (human (endogenous in HepG2)) (UniProt O76031); experiment: co-IP; endogenous CLPX precipitated with anti-CLPX antibody and Dynabeads Protein G from HepG2 (CLPX-WT) lysate, overnight 4 °C, Western blot; cells with or without 50 nM Gcg; rabbit IgG as negative control
[4] = biological target: Trifunctional enzyme subunit alpha, mitochondrial (human (endogenous in FT293 and HepG2)) (UniProt P40939); experiment: co-IP; endogenous HADHA precipitated with anti-HADHA antibody and Dynabeads Protein G from HepG2 lysate, overnight 4 °C, Western blot; CLPX-WT and CLPX-KO cells, CLPX-WT cells with or without 50 nM Gcg; rabbit IgG as negative control; remark: listed apart in the source

Row | Molecule | binding [1] | binding [2] | binding [3] | binding [4]
1 | endogenous CLPX (from UniProt O76031 57-633) | binds | binds |  | 
2 | Trifunctional enzyme subunit alpha, mitochondrial (from UniProt P40939 37-763) |  | binds | binds | 
3 | B1 |  | binds | binds | binds
4 | B2 |  | binds | binds | binds
5 | B3 |  | binds |  | binds
